PubChem BioAssay AID652272 – Drosophila RNAi Screening Center | 2013

Screen: 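Genes whose knock-down decreases or increases Hedgehog reporter output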 (primary screen)
System: Drosophila clone 8 (Cl8) cells
Reagents: long dsRNA against Drosophila genes
Detection: 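Firefly light from a Hedgehog-responsive ptc promoter reporter and Renilla reference light, both read on a plate reader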
Reading the numbers: firefly Hh reporter signal: higher = more ptc reporter light; Renilla reference signal: higher = more Renilla control light
Call rule: 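Called a hit if the two-replicate mean z-score lies below -2 or above +3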
Meaning of the calls: active = hit: reporter lowered or raised; inactive = not a hit
The screen tested about 21,000 reagents; shown is a random part of those that have a named target and a result. Over the whole deposit, 503 (2.4%) got an active call. 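Raw plate light values, not normalised; calls rest on replicate z-scores that were not deposited; hits include reporter decreases as well as increases.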 Names joined by + are all predicted targets of the reagent. Not stated in the record: the amount of reagent, the time to read-out.

| predicted target | dsRNA | firefly Hh reporter signal, replicate 1 | firefly Hh reporter signal, replicate 2 | firefly Hh reporter signal, replicate 3 | Renilla reference signal, replicate 1 | Renilla reference signal, replicate 2 | outcome |
| --- | --- | --- | --- | --- | --- | --- | --- |
| CG43191 | DRSC05326 | 91426 | 1.84e5 | – | 2885 | 8233 | inactive |
| side-VII (sidestep VII) | DRSC14578 | 1.14e5 | 90885 | – | 5696 | 3952 | inactive |
| Caf1-55 (Chromatin assembly factor 1, p55 subunit) | DRSC16596 | 91345 | 78393 | – | 4020 | 3035 | inactive |
| Cad88C (Cadherin 88C) | DRSC15486 | 71914 | 72425 | – | 2593 | 1901 | inactive |
| CG1231 | DRSC08267 | 76400 | 44772 | – | 1847 | 3799 | inactive |
| Ac3 (Adenylate cyclase 3) | DRSC03692 | 87731 | 71430 | – | 3737 | 2880 | inactive |
| alpha-Est9 (alpha-Esterase-9) | DRSC12621 | 65591 | 1.20e5 | – | 2048 | 3451 | inactive |
| CG13331 | DRSC06366 | 80699 | 58816 | – | 1904 | 4194 | inactive |
| CG30283 | DRSC04071 | 76470 | 42727 | – | 1563 | 4467 | inactive |
| Usp10 (Ubiquitin specific protease 10) | DRSC08282 | 1.17e5 | 1.31e5 | – | 4938 | 4471 | inactive |
| Usp10 (Ubiquitin specific protease 10) | DRSC08373 | 58394 | 42704 | – | 1760 | 3171 | inactive |
| Peritrophin-15a | DRSC02636 | 1.19e5 | 68614 | – | 3020 | 7156 | inactive |
| CG14246 | DRSC14741 | 2.20e5 | 5.77e5 | 2.45e5 | 7616 | 3360 | inactive |
| Amy-p (Amylase proximal) | DRSC06786 | 83479 | 36592 | – | 2108 | 2621 | inactive |
| Klp31E (Kinesin-like protein at 31E) | DRSC03354 | 88918 | 54676 | – | 4817 | 2432 | inactive |
| CG2113 | DRSC08554 | 69523 | 31004 | – | 2216 | 2547 | inactive |
| Tsp42Ef (Tetraspanin 42Ef) | DRSC06191 | 82828 | 60933 | – | 2097 | 5528 | inactive |
| Ttc7 (Tetratricopeptide repeat domain 7) | DRSC04836 | 1.81e5 | 70834 | – | 6376 | 2772 | inactive |
| CG42306 + Gint3 | DRSC06934 | 76359 | 43888 | – | 4708 | 2656 | inactive |
| Snx17 (Sorting nexin 17) | DRSC02884 | 84707 | 71905 | – | 5010 | 3440 | inactive |
| Plc21C (Phospholipase C at 21C) | DRSC00773 | 91536 | 69078 | – | 3901 | 3120 | inactive |
| Pbp95 (PSEA-binding protein 95kD) | DRSC15448 | 93228 | 88227 | – | 4098 | 2887 | inactive |
| nyo (nyobe) | DRSC15029 | 1.01e5 | 3.33e5 | – | 1677 | 10093 | inactive |
| nyo (nyobe) | DRSC15030 | 72794 | 1.50e5 | – | 1925 | 5354 | inactive |
| CG34168 | DRSC01938 | 1.46e5 | 1.06e5 | – | 3552 | 8186 | inactive |
| Alg12 (Alg12 alpha-1,6-mannosyltransferase) | DRSC16416 | 59842 | 1.41e5 | – | 1593 | 3489 | inactive |
| Gld (Glucose dehydrogenase) | DRSC12595 | 77769 | 94219 | – | 3879 | 3141 | inactive |
| snk (snake) | DRSC17060 | 94192 | 70480 | – | 2884 | 2087 | inactive |
| Vha100-2 (Vacuolar H[+] ATPase 100kD subunit 2) | DRSC14152 | 1.04e5 | 1.14e5 | – | 3895 | 4151 | inactive |
| CG32645 | DRSC19683 | 99105 | 3.26e5 | – | 1866 | 10987 | inactive |
| CG32645 | DRSC19889 | 72164 | 2.87e5 | – | 1913 | 9851 | inactive |
| Arp5 (Actin-related protein 5) | DRSC16350 | 1.38e5 | 71099 | – | 4512 | 2336 | inactive |
| Rpn11 (Regulatory particle non-ATPase 11) | DRSC03422 | 34736 | 19238 | – | 1644 | 3291 | active |
| CG32236 | DRSC08117 | 1.22e5 | 3.38e5 | – | 3584 | 12770 | inactive |
| CG13113 | DRSC02211 | 1.05e5 | 65085 | – | 2768 | 5289 | inactive |
| CG14628 | DRSC18626 | 92800 | 2.45e5 | – | 2471 | 10000 | inactive |

4 consecutive records from above, quoted:
| predicted target | dsRNA | firefly Hh reporter signal, replicate 1 | firefly Hh reporter signal, replicate 2 | firefly Hh reporter signal, replicate 3 | Renilla reference signal, replicate 1 | Renilla reference signal, replicate 2 | outcome |
| --- | --- | --- | --- | --- | --- | --- | --- |
| CG2113 | DRSC08554 | 69523 | 31004 | – | 2216 | 2547 | inactive |
| Tsp42Ef (Tetraspanin 42Ef) | DRSC06191 | 82828 | 60933 | – | 2097 | 5528 | inactive |
| Ttc7 (Tetratricopeptide repeat domain 7) | DRSC04836 | 1.81e5 | 70834 | – | 6376 | 2772 | inactive |
| CG42306 + Gint3 | DRSC06934 | 76359 | 43888 | – | 4708 | 2656 | inactive |

The listing continues:
| predicted target | dsRNA | firefly Hh reporter signal, replicate 1 | firefly Hh reporter signal, replicate 2 | firefly Hh reporter signal, replicate 3 | Renilla reference signal, replicate 1 | Renilla reference signal, replicate 2 | outcome |
| --- | --- | --- | --- | --- | --- | --- | --- |
| CG11588 | DRSC09145 | 1.33e5 | 2.57e5 | – | 13641 | 9529 | inactive |
| CG11588 | DRSC09846 | 72946 | 65648 | 47644 | 6169 | 3014 | inactive |
| Rbpn-5 (Rabaptin-5) | DRSC04440 | 89728 | 44123 | – | 3389 | 1677 | inactive |
| lncRNA:yar (yellow-achaete intergenic RNA) | DRSC17679 | 6.89e5 | 8.63e5 | 2.65e5 | 33060 | 5767 | inactive |
| pns (pinstripe) | DRSC08598 | 65764 | 55253 | – | 2221 | 4812 | inactive |
| PIG-H + Kmn2 | DRSC12653 | 1.33e5 | – | – | 2387 | – | inactive |
| CG12883 | DRSC14570 | 62041 | 95843 | – | 1568 | 2393 | inactive |
| CG13751 | DRSC06422 | 1.09e5 | 66441 | – | 2513 | 5517 | inactive |
| Smyd4-2 (SET and MYND domain containing, class 4, member 2) | DRSC10126 | 95413 | 51801 | 41893 | 6156 | 2388 | inactive |
| Tak1 (TGF-beta activated kinase 1) | DRSC20390 | 5.74e5 | 2.85e5 | – | 41936 | 7538 | inactive |
| Tak1 (TGF-beta activated kinase 1) | DRSC20561 | 73828 | 2.27e5 | – | 2133 | 8984 | inactive |
| Tak1 (TGF-beta activated kinase 1) | DRSC20562 | 1.17e5 | 4.06e5 | – | 3321 | 16541 | inactive |
| ProtA (Protamine A) | DRSC03372 | 88545 | 64307 | – | 2385 | 5300 | inactive |
| CG10165 | DRSC02017 | 82642 | 59741 | – | 3984 | 2736 | inactive |
| CG31406 | DRSC12777 | 2.03e5 | – | – | 3809 | – | inactive |
| CG34354 | DRSC13863 | 44246 | 2.15e5 | – | 10489 | 5866 | inactive |
| CG34354 | DRSC14515 | 80140 | 24320 | – | 3010 | 1051 | inactive |
| CG34354 | DRSC14558 | 35508 | 21892 | – | 1814 | 1312 | active |
| CG34354 | DRSC15645 | 84434 | 1.00e5 | – | 2976 | 3009 | inactive |
| tub (tube) | DRSC12389 | 1.65e5 | 6.29e5 | 97922 | 6028 | 34996 | inactive |
| CG31337 | DRSC12981 | 64161 | 2.41e5 | – | 12817 | 5373 | inactive |
